Experimental data reported in PubChem BioAssay AID248 (DTP/NCI, 2004).
The list does not hold the whole screen: it gathers tests that were run many times, whatever their T/C, doses with no T/C, and many T/C values between a quarter and a half above the control. Other doses and runs of a compound stand elsewhere. T/C is the treated group as % of the vehicle group. Some doses have a count of surviving animals in place of a T/C: the source files T/C as zero there, which appears to mark a toxic dose or a test without result, not a measured value. Some survivor counts are full or nearly so, which does not show that the dose was tolerated: survival well below the control is almost never listed, so the zero probably covers shortened survival too. Survivors were counted at the toxicity check, usually on the fifth day, unless a day is given; later deaths do not show. Schedules are NCI's codes, taken here to give the interval after Q, in days (D) or hours (H), and the number of doses after X. Some doses were run more than once; the values are given in rising order. For survival time, this PubChem deposit counts one and a half times the control or more as active, and values a quarter to a half above the control carry no call in these data; other NCI protocols may use other cut-offs. Some T/C values carry the count of animals alive at the toxicity check (mostly the fifth day); where none is given, no animal had died by that day.

System: L1210 leukemia ip in BDF1 mice, survival T/C
Assay: NCI In Vivo Anticancer Drug Screen. Data for tumor model L1210 Leukemia (intraperitoneal) in B6D2F1 (BDF1) mice
Settings: higher T/C = longer survival

In the case of `Cc1c2oc3c(C)ccc(C(=O)N[C@@H]4C(=O)N[C@H](C(C)C)C(=O)N5CCC[C@H]5C(=O)N(C)CC(=O)N(C)[C@@H](C(C)C)C(=O)O[C@H]4C)c3nc-2c(C(=O)N[C@@H]2C(=O)N[C@H](C(C)C)C(=O)N3CCC[C@H]3C(=O)N(C)CC(=O)N(C)[C@@H](C(C)C)C(=O)O[C@H]2C)c(N)c1=O`, the survivor count (T/C endpoint: mean survival time, dose: 512.0 micrograms/kg/injection, schedule: Q01DX001 (ip), vehicle: saline) is reported as 3 of 10, the survivor count (T/C endpoint: mean survival time, dose: 600.0 micrograms/kg/injection, schedule: Q04DX003 (ip), vehicle: saline + alcohol) is reported as 7 of 8 and the T/C (T/C endpoint: mean survival time, dose: 600.0 micrograms/kg/injection, schedule: Q04DX003 (ip), vehicle: saline) is reported as 146 % of control. The T/C (T/C endpoint: median survival time, dose: 0.04 mg/kg/injection, schedule: Q01DX009 (ip), vehicle: water) was 128 % of control, the T/C (T/C endpoint: median survival time, dose: 0.05 mg/kg/injection, schedule: Q01DX009 (ip), vehicle: water, evaluated on day 5) was 147 % of control and the T/C (T/C endpoint: median survival time, dose: 0.05 mg/kg/injection, schedule: Q01DX009 (ip), vehicle: water, evaluated on day 19) was 147 % of control. For the same molecule, the T/C (T/C endpoint: median survival time, dose: 0.06 mg/kg/injection, schedule: Q01DX009 (ip), vehicle: water, evaluated on day 5) was 127 % of control, the T/C (T/C endpoint: median survival time, dose: 0.06 mg/kg/injection, schedule: Q01DX009 (ip), vehicle: water, evaluated on day 19) was 127 % of control and the T/C (T/C endpoint: median survival time, dose: 0.07 mg/kg/injection, schedule: Q01DX009 (ip), vehicle: water, evaluated on day 5) was 146 % of control. The T/C (T/C endpoint: median survival time, dose: 0.07 mg/kg/injection, schedule: Q01DX009 (ip), vehicle: water, evaluated on day 19) was 146 % of control, the T/C (T/C endpoint: median survival time, dose: 0.1 mg/kg/injection, schedule: Q01DX002 (ip), vehicle: saline, evaluated on day 5) was 130 % of control and the T/C (T/C endpoint: median survival time, dose: 0.1 mg/kg/injection, schedule: Q01DX002 (ip), vehicle: saline, evaluated on day 20) was 130 % of control. For the same molecule, the T/C (T/C endpoint: median survival time, dose: 0.12 mg/kg/injection, schedule: Q04DX003 (ip), vehicle: saline) was 136 % of control, the T/C (T/C endpoint: median survival time, dose: 0.12 mg/kg/injection, schedule: Q04DX003 (ip), vehicle: water) was 128 % of control and the T/C (T/C endpoint: median survival time, dose: 0.13 mg/kg/injection, schedule: Q04DX003 (ip), vehicle: saline) was 136 % of control. For the same molecule, the T/C (T/C endpoint: median survival time, dose: 0.13 mg/kg/injection, schedule: Q04DX003 (ip), vehicle: water) was 128 % of control, the T/C (T/C endpoint: median survival time, dose: 0.2 mg/kg/injection, schedule: Q01DX002 (ip), vehicle: saline, evaluated on day 5) was 131 % of control and the T/C (T/C endpoint: median survival time, dose: 0.2 mg/kg/injection, schedule: Q01DX002 (ip), vehicle: saline, evaluated on day 20) was 131 % of control. For the same molecule, the T/C (T/C endpoint: median survival time, dose: 0.25 mg/kg/injection, schedule: Q04DX003 (ip), vehicle: water, evaluated on day 5) was 132 % of control, the T/C (T/C endpoint: median survival time, dose: 0.25 mg/kg/injection, schedule: Q04DX003 (ip), vehicle: water, evaluated on day 30) was 132 % of control and the T/C (T/C endpoint: median survival time, dose: 0.25 mg/kg/injection, schedule: Q04DX003 (ip), vehicle: water, evaluated on day 60) was 127 % of control. For the same molecule, the T/C (T/C endpoint: median survival time, dose: 0.25 mg/kg/injection, schedule: Q08DX002 (ip), vehicle: water) was 133 % of control, the survivor count (T/C endpoint: median survival time, dose: 0.4 mg/kg/injection, schedule: Q01DX002 (ip), vehicle: saline) was 8 of 8 and the T/C (T/C endpoint: median survival time, dose: 0.5 mg/kg/injection, schedule: Q01DX001 (ip), vehicle: water) was 127 % of control [9 of 10 alive]. The T/C (T/C endpoint: median survival time, dose: 0.5 mg/kg/injection, schedule: Q08DX002 (ip), vehicle: water) was 138 % of control [9 of 10 alive], the survivor count (T/C endpoint: median survival time, dose: 1.0 mg/kg/injection, schedule: Q01DX001 (ip), vehicle: water) was 1 of 10 and the survivor count (T/C endpoint: median survival time, dose: 1.0 mg/kg/injection, schedule: Q04DX003 (ip), vehicle: saline) was 1 of 8. The survivor count (T/C endpoint: median survival time, dose: 1.0 mg/kg/injection, schedule: Q04DX003 (ip), vehicle: water) was 3 of 8 and 4 of 10, the survivor count (T/C endpoint: median survival time, dose: 1.0 mg/kg/injection, schedule: Q08DX002 (ip), vehicle: water) was 3 of 10 and the T/C (T/C endpoint: median survival time, dose: 25.0 micrograms/kg/injection, schedule: Q01DX009 (ip), vehicle: saline) was 130 and 137 % of control. The T/C (T/C endpoint: median survival time, dose: 25.0 micrograms/kg/injection, schedule: Q01DX009 (ip), vehicle: water) was 126 % of control, the T/C (T/C endpoint: median survival time, dose: 50.0 micrograms/kg/injection, schedule: Q01DX009 (ip), vehicle: saline) was 135 and 137 % of control and the T/C (T/C endpoint: median survival time, dose: 50.0 micrograms/kg/injection, schedule: Q01DX009 (ip), vehicle: water) was 146 % of control. The survivor count (T/C endpoint: median survival time, dose: 62.0 micrograms/kg/injection, schedule: Q03HX016 (ip), vehicle: water) was 6 of 10, the survivor count (T/C endpoint: median survival time, dose: 100.0 micrograms/kg/injection, schedule: Q01DX009 (ip), vehicle: saline) was 6 of 6 and the T/C (T/C endpoint: median survival time, dose: 100.0 micrograms/kg/injection, schedule: Q01DX009 (ip), vehicle: water) was 131 % of control. The survivor count (T/C endpoint: median survival time, dose: 125.0 micrograms/kg/injection, schedule: Q01DX009 (ip), vehicle: water) was 10 of 10, the survivor count (T/C endpoint: median survival time, dose: 125.0 micrograms/kg/injection, schedule: Q03HX008 (ip), vehicle: water) was 0 of 10 and the survivor count (T/C endpoint: median survival time, dose: 125.0 micrograms/kg/injection, schedule: Q03HX016 (ip), vehicle: water) was 0 of 10. The T/C (T/C endpoint: median survival time, dose: 150.0 micrograms/kg/injection, schedule: Q04DX003 (ip), vehicle: water) was 129 % of control, the T/C (T/C endpoint: median survival time, dose: 200.0 micrograms/kg/injection, schedule: Q01DX001 (ip), vehicle: water) was 125 % of control and the survivor count (T/C endpoint: median survival time, dose: 200.0 micrograms/kg/injection, schedule: Q01DX009 (ip), vehicle: saline) was 5 of 6. The survivor count (T/C endpoint: median survival time, dose: 250.0 micrograms/kg/injection, schedule: Q01DX009 (ip), vehicle: water) was 8 of 10, the T/C (T/C endpoint: median survival time, dose: 300.0 micrograms/kg/injection, schedule: Q04DX003 (ip), vehicle: water) was 140 % of control and the T/C (T/C endpoint: median survival time, dose: 400.0 micrograms/kg/injection, schedule: Q01DX001 (ip), vehicle: water) was 126 % of control. For the same molecule, the T/C (T/C endpoint: median survival time, dose: 800.0 micrograms/kg/injection, schedule: Q01DX001 (ip), vehicle: water) was 140 % of control and the survivor count (T/C endpoint: median survival time, dose: 1600.0 micrograms/kg/injection, schedule: Q01DX001 (ip), vehicle: water) was 0 of 10.
